# Assay results: the RNAGym collection of RNA variant scans (doi:10.1126/science.aae0568)
# This sample is rich in variants without activity.
# B1: tRNA (parent)
# chain: GUUCCGUUGGCGUAAUGGUAACGCGUCUCCCUCCUAAGGAGAAGACUGCGGGUUCGAGUCCCGUACGGAACG
# Variants of: B1
# Assay: yeast fitness relative to wild type (ratio to wild type); higher = fitter; tRNA-Arg(CCU), competitive growth, 37 C, YPD
# Summary of the method: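 Genotype frequency changes were the basis for Darwinian fitness relative to wild type. The frequencies came from 100-nucleotide paired-end sequencing of gene amplicons from the start population and each end population of pooled yeast strains with tRNA-Arg(CCU) gene variants at the native locus. Competition ran in YPD at 37°C for 24 hours in six replicates, genotypes needed ≥ 100 starting reads, and estimates < 0.5 were set to 0.5.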
row,Variant,yeast fitness
1,G6C C24A G52A,≤ 0.5
2,G6C C24G C34U U53C C55G,≤ 0.5
3,G6C C24U G38C A40G,≤ 0.5
4,G6C C24U U28C G52C C60G,≤ 0.5
5,G6C C27G A42U,≤ 0.5
6,G6C C27G C62U A65U,≤ 0.5
7,G6C C27U U28C A45G U64A,≤ 0.5
8,G6C C31A A43C U64C,≤ 0.5
9,G6C C31G C61G A69G,≤ 0.5
10,G6C C33G A36C C49A C60G,≤ 0.5
11,G6C C46G A57G C62U C66U,≤ 0.5
12,G6C G9A G17U C24A A45C,≤ 0.5
13,G6C G9C U26C A43C C46U,≤ 0.5
14,G6C G12A G58C,0.964
15,G6C G17C C31G A36G G48C,≤ 0.5
16,G6C G18C A20G C22U C34G A36U A57C C66U,≤ 0.5
17,G6C G23A C34U G51C,≤ 0.5
18,G6C G44C G68C,≤ 0.5
19,G6C G56C A70C,≤ 0.5
20,G6C U7C A14U A15C U26C G48A G63A A69C,≤ 0.5
21,G6C U7C A14U A15C U26C G48A G63A C66U A69C,≤ 0.5
22,G6C U7C C24U C29G G50C C66U,≤ 0.5
23,G6C U7G A43U A65C,0.825
24,G6C U7G G17C G58C G63C,≤ 0.5

row,Variant,yeast fitness
1,G6C U8A C22U G58C,≤ 0.5
2,G6C U8C A42G C46U C55G,≤ 0.5
3,G6C U8C C24U U35C C66U,≤ 0.5
4,G6C U13C A14G A20C U64A G67A,≤ 0.5
5,G6C U13C C46A,0.627
6,G6C U13G C22A C34G,≤ 0.5
7,G6C U16A C27G U59A,≤ 0.5
8,G6C U16A G18C C22G C49U,≤ 0.5
9,G6C U16G C31U G38C C60U,≤ 0.5
10,G6C U19G G48C G52A,≤ 0.5
11,G6C U26C C31A G38C,≤ 0.5
12,G6C U26C U35C A36U A40U,≤ 0.5
13,G6C U59A C66A,≤ 0.5
14,G6U A20C G38C A43U A45G,≤ 0.5
15,G6U A21U C31A G39C C61A,≤ 0.5
16,U7A A14C C22G C27U U47A G48C,≤ 0.5
17,U7A A14U C22U C27A C33U C61A,≤ 0.5
18,U7A A15G C24G G50A C55U,≤ 0.5
19,U7A A15G G23A G63C,0.557
20,U7A A20C A21G G23A,0.65
21,U7A A20G C29U A57C,≤ 0.5
22,U7A A20G C34A G56C,≤ 0.5
23,U7A A20G G23A U26G G58C,≤ 0.5
24,U7A A36C C55U,≤ 0.5

row,Variant,yeast fitness
1,U7A A37C A43C U59C,≤ 0.5
2,U7A A37G G48A C66U,≤ 0.5
3,U7A A40C,0.724
4,U7A A40U A45G C46U,≤ 0.5
5,U7A A42U A57C C61U A65U,≤ 0.5
6,U7A A43C G51C,≤ 0.5
7,U7A C22A A57U,≤ 0.5
8,U7A C22A G52A,≤ 0.5
9,U7A C22G C30U U32C A37G A70G,≤ 0.5
10,U7A C22U G23A C46A C61G,≤ 0.5
11,U7A C24U U28G C33G C34U A36G A40G,≤ 0.5
12,U7A C27U A69C,0.649
13,U7A C27U C29A A36U A40C G52C A69C,≤ 0.5
14,U7A C27U G52C G68C,≤ 0.5
15,U7A C29A G58A C61G A70U,0.665
16,U7A C29U A36U G67A,≤ 0.5
17,U7A C30G A37G A43G,≤ 0.5
18,U7A C30U G67A,≤ 0.5
19,U7A C31A A65G,≤ 0.5
20,U7A C31G C33U A42G G52C G58C,≤ 0.5
21,U7A C31U A43G U59A,≤ 0.5
22,U7A C33A C46U,≤ 0.5
23,U7A C33U C49U,≤ 0.5
24,U7A C34G G48C,≤ 0.5

row,Variant,yeast fitness
1,U7A C34G U53A A70U,≤ 0.5
2,U7A C34U G38C,≤ 0.5
3,U7A C46A G50C G58A,≤ 0.5
4,U7A G9A C24A G68C,≤ 0.5
5,U7A G9C A15G G23A U53A,0.505
6,U7A G9C G17C A20G G48A,≤ 0.5
7,U7A G9C G17C G48A A69U,≤ 0.5
8,U7A G10A A20C C29A C55G G63C,≤ 0.5
9,U7A G10A G41C A42U C46A A65G,≤ 0.5
10,U7A G10A G58A,≤ 0.5
11,U7A G12A C31G U64A C66U G68C,≤ 0.5
12,U7A G12C A57U G63C U64A A70U,≤ 0.5
13,U7A G12C C34U C66G,≤ 0.5
14,U7A G44C C49A,≤ 0.5
15,U7A G48A U59C G63A,≤ 0.5
16,U7A G50C A57C C61U,≤ 0.5
17,U7A G51A G58C G68A,≤ 0.5
18,U7A G52A,0.582
19,U7A U8G C22U C30U A42G C61A,≤ 0.5
20,U7A U13C A42U C46A,≤ 0.5
21,U7A U13G,≤ 0.5
22,U7A U16C G17A C29U C31A C33A C66G G67U,≤ 0.5
23,U7A U59C,0.662
24,U7C A14G A43U C49G,≤ 0.5

row,Variant,yeast fitness
1,U7C A14G C29U C31U C33U C55U,≤ 0.5
2,U7C A15U G48A C49U C62U,≤ 0.5
3,U7C A21C A40C U53G C62U,≤ 0.5
4,U7C A21U A36U A37C C49U,≤ 0.5
5,U7C A37G A42C A65C A69C,≤ 0.5
6,U7C A37G C55A G58C,≤ 0.5
7,U7C A40U A42U U54A C61A,≤ 0.5
8,U7C C11G C31A G39A G48A C61U A65C,≤ 0.5
9,U7C C11G G39C G50C,≤ 0.5
10,U7C C11G U13A C29U A69U,≤ 0.5
11,U7C C11G U32G,≤ 0.5
12,U7C C11U A15C G38A A45G G52A C61G,≤ 0.5
13,U7C C22G C27U U59A,≤ 0.5
14,U7C C22U C27U A57U C61G,≤ 0.5
15,U7C C24G C49G,≤ 0.5
16,U7C C24U C55U C60G,≤ 0.5
17,U7C C27G A65U A70G,≤ 0.5
18,U7C C30U C34A C46U A69C,≤ 0.5
19,U7C C31G G41A G52C C60U C62G C66G,≤ 0.5
20,U7C C34G U35A G63C,≤ 0.5
21,U7C C46U C61A G67A,0.561
22,U7C G10A G50C,≤ 0.5
23,U7C G10C A20G A43C,≤ 0.5
24,U7C G12A A20C C24A C27A A36C,≤ 0.5

row,Variant,yeast fitness
1,U7C G23A G39C A70G,≤ 0.5
2,U7C G41A A42C A57C,≤ 0.5
3,U7C G41A A42C G50C C60U,≤ 0.5
4,U7C G67A,0.863
5,U7C G67U,0.847
6,U7C U8C G41A A42C G50C A70G,≤ 0.5
7,U7C U13A U16A U54A,≤ 0.5
8,U7C U19A C62A,≤ 0.5
9,U7C U19C U26C C34U G52A U59A G63C,≤ 0.5
10,U7C U32A A45U G67U A69G,≤ 0.5
11,U7C U32A A65C,≤ 0.5
12,U7C U32C C33G A70G,≤ 0.5
13,U7G A14C G48A U53C C60A,≤ 0.5
14,U7G A14G A65U,≤ 0.5
15,U7G A14U,0.675
16,U7G A15C G39C C49G,≤ 0.5
17,U7G A15G,0.913
18,U7G A21U C29A C55A,0.604
19,U7G A21U C29A C55A C66U,≤ 0.5
20,U7G A42G,0.837
21,U7G A70U,1.01
22,U7G C11G C34U A37U C46A G51A,≤ 0.5
23,U7G C11G C34U C46U U54G A70U,≤ 0.5
24,U7G C11G C34U C49G U59A,≤ 0.5

row,Variant,yeast fitness
1,U7G C24U U54G A65C,≤ 0.5
2,U7G C27A G51C,≤ 0.5
3,U7G C27U,0.792
4,U7G C27U C61A G63A,≤ 0.5
5,U7G C29U C31U A37G G38C A70G,≤ 0.5
6,U7G C33G C62A G68C,≤ 0.5
7,U7G C34A G44C C49U G51A,≤ 0.5
8,U7G C34G A36C C62G G68C,≤ 0.5
9,U7G C49U C61G,≤ 0.5
10,U7G G10A C27U C31A U53C,≤ 0.5
11,U7G G10C C33G C34G C62G,≤ 0.5
12,U7G G12A G25A C33G A69C,≤ 0.5
13,U7G G12A U13A,0.565
14,U7G G48A C62U,0.628
15,U7G G58A C61A,≤ 0.5
16,U7G U8C U28G A43C,≤ 0.5
17,U7G U13A G25C A65G,≤ 0.5
18,U7G U28C U53A,≤ 0.5
19,U7G U32G A37U G50C,≤ 0.5
20,U7G U35A C49G C60A,≤ 0.5
21,U7G U59G,0.705
22,U8A A14G G18C C61A,≤ 0.5
23,U8A A15C G18C C49U U64A,≤ 0.5
